Record: PubChem BioAssay AID1259261 (Sanger Institute, 2017)

Test: 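siRNA screen across the kinome for kinases that are essential and partners synergising with drugs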 (primary screen)
Cell system: HCC2998 human colorectal cancer cells
Reagents: siRNA pool against human genes
Treatment: anchor drugs BYL719 1 µM, cetuximab 5 µg/ml or trametinib 10 nM, each compared with DMSO vehicle
Measurement: 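Viability as fraction of non-targeting control plus robust z-score without drug; synergy scores compare knock-down plus drug against each alone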
Scale: viability z-score, knock-down alone: higher = more viable cells than controls; viability fraction, knock-down alone: higher = more viable cells; synergy score with BYL719: higher = stronger combined killing with BYL719; synergy score with trametinib: higher = stronger combined killing with trametinib; synergy score with cetuximab: higher = stronger combined killing with cetuximab
Call rule: 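Essential when the siRNA-alone viability robust z-score is below -3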
Meaning of the calls: active = essential; inactive = no change
Here is a random part of 794 reagents tested. 10 of them (1.3%) count as active. 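Calls reflect knock-down alone without drug; synergy scores with BYL719, cetuximab or trametinib do not affect calls.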 Unmarked entries are inactive. Viability is capped at 1. Not stated in the record: the amount of reagent, the time to read-out.

no.	gene symbol	viability z-score, knock-down alone	viability fraction, knock-down alone	synergy score with BYL719	synergy score with trametinib	synergy score with cetuximab
1	CAMK1G	1.19	0.998	0.0177	0.0167	-0.0412
2	TP53	-0.883	0.738	-0.102	0.0201	-0.0182
3	MAP3K20	-0.23	0.82	-0.0626	0.0405	-0.126
4	HUNK	-3.2 (active)	0.448	-0.0307	0.0545	-0.0705
5	PTPN11	-0.594	0.774	-0.109	-0.0232	-0.135
6	PRKCSH	0.772	0.946	-0.0642	-0.0791	-0.0506
7	ROCK2	0.365	0.895	0.0493	-0.0137	0.058
8	FYN	0.336	0.891	0.0163	0.00929	-0.0779
9	CKM	0.809	0.95	-0.0603	-0.115	-0.0617
10	TRIB2	0.358	0.894	-0.0132	0.0637	0.00407
11	TRIB3	-0.875	0.739	0.00274	0.08	-0.0654
12	EPHB2	0.472	0.908	-0.0724	0.0341	-0.0862
13	PRKAB1	0.00185	0.849	-0.0273	-0.0775	-0.0715
14	DGKK	0.584	0.922	-0.0844	0.0535	-0.0145
15	ADCK2	-0.2	0.824	0.047	0.0448	-0.0714
16	GSK3A	-0.847	0.743	-0.0785	0.0423	-0.137
17	DUSP21	0.661	0.932	-0.0236	-0.0084	-0.105
18	CDK3	0.672	0.933	-0.0152	0.0385	-0.0451
19	CALM2	-0.182	0.826	0.00558	-0.0341	-0.00262
20	CPNE3	-1.31	0.684	0.00604	0.022	-0.129
21	CDKN1C	1.21	1	0.00179	0.0462	-0.0432
22	CREBBP	-0.645	0.768	0.0346	-0.0179	0.00502
23	GUCY2C	1.15	0.993	-0.0926	0.135	0.0534
24	MAP3K3	-1.8	0.623	-0.0461	0.0459	-0.0917
25	ROR2	1.06	0.982	-0.0733	0.0013	-0.0603
26	PAPSS1	1.21	1	-0.0134	-0.0833	-0.0432
27	KALRN	-0.601	0.774	-0.000849	0.135	-0.0444
28	MET	0.353	0.893	-0.0414	0.035	-0.143
29	EFNA5	1.21	1	-0.109	0.0676	-0.0432
30	PIK3C2G	-1.38	0.676	-0.0184	0.177	-0.0854
31	FER	1.2	0.999	-0.0828	-0.038	-0.0229
32	MAPK8	-0.0385	0.844	-0.0242	-0.0155	-0.00606

Next part (5 carried over from the part before).
no.	gene symbol	viability z-score, knock-down alone	viability fraction, knock-down alone	synergy score with BYL719	synergy score with trametinib	synergy score with cetuximab
28	MET	0.353	0.893	-0.0414	0.035	-0.143
29	EFNA5	1.21	1	-0.109	0.0676	-0.0432
30	PIK3C2G	-1.38	0.676	-0.0184	0.177	-0.0854
31	FER	1.2	0.999	-0.0828	-0.038	-0.0229
32	MAPK8	-0.0385	0.844	-0.0242	-0.0155	-0.00606
33	STK24	0.395	0.898	-0.108	-0.161	-0.00544
34	AKT1	0.22	0.876	-0.0313	-0.0814	-0.0567
35	NRBP1	-1.41	0.672	-0.0606	-0.0544	-0.0337
36	ROS1	-0.083	0.838	-0.0751	-0.0149	0.0146
37	EPHB4	-1.48	0.663	-0.0277	-0.0531	-0.0016
38	TYRO3	1.21	1	0.0619	-0.00192	-0.0432
39	MAP3K9	-1.84	0.618	0.0367	0.157	0.0238
40	DMPK	1.09	0.985	0.0785	0.0595	0.0122
41	WEE1	-2.78	0.5	-0.101	0.0315	0.0241
42	TP53BP1	-0.27	0.815	-0.0363	-0.00714	-0.0153
43	MAK	0.497	0.911	-0.00958	0.131	-0.0746
44	MPP2	0.809	0.95	0.111	0.232	0.0455
45	MAPK9	1.21	1	-0.0686	-0.0801	-0.0432
46	FGFR3	-0.775	0.752	-0.0642	0.069	-0.0866
47	UCKL1	0.741	0.942	-0.0243	-0.023	0.0514
48	TEX14	0.276	0.884	-0.213	-0.183	-0.155
49	MAST4	1.21	1	0.0299	0.00682	-0.0116
50	KIT	0.15	0.868	-0.0497	-0.0449	0.0599
51	CKB	0.356	0.894	0.0268	-0.0465	0.0355
52	STK26	0.792	0.948	0.0617	0.0899	0.0896
53	PSTK	-0.387	0.8	-0.0106	0.0636	0.0298
54	CDKL2	0.405	0.9	-0.056	0.00907	-0.129
55	PLK3	0.0794	0.859	-0.0815	-0.0156	-0.143
56	ASPM	0.673	0.933	0.0506	0.0781	0.0651
57	PAK5	-2.09	0.587	-0.0464	0.0247	-0.116
58	MAP3K19	-1.34	0.681	-0.0868	-0.0422	-0.0723
59	UCK1	1.21	1	-0.103	0.14	-0.00592
60	WNK4	0.512	0.913	-0.043	0.00637	-0.0214
61	N4BP2	-0.884	0.738	-0.123	-0.00538	-0.146
62	NUP98	-3.04 (active)	0.468	0.00571	-0.00602	0.0314
63	DAPK3	-0.631	0.77	-0.106	-0.103	-0.133
